Screening data, single-dose tests

The chains behind the UniProt entries cited, without tags or fusion partners.
UniProt I6X8D2, whole entry: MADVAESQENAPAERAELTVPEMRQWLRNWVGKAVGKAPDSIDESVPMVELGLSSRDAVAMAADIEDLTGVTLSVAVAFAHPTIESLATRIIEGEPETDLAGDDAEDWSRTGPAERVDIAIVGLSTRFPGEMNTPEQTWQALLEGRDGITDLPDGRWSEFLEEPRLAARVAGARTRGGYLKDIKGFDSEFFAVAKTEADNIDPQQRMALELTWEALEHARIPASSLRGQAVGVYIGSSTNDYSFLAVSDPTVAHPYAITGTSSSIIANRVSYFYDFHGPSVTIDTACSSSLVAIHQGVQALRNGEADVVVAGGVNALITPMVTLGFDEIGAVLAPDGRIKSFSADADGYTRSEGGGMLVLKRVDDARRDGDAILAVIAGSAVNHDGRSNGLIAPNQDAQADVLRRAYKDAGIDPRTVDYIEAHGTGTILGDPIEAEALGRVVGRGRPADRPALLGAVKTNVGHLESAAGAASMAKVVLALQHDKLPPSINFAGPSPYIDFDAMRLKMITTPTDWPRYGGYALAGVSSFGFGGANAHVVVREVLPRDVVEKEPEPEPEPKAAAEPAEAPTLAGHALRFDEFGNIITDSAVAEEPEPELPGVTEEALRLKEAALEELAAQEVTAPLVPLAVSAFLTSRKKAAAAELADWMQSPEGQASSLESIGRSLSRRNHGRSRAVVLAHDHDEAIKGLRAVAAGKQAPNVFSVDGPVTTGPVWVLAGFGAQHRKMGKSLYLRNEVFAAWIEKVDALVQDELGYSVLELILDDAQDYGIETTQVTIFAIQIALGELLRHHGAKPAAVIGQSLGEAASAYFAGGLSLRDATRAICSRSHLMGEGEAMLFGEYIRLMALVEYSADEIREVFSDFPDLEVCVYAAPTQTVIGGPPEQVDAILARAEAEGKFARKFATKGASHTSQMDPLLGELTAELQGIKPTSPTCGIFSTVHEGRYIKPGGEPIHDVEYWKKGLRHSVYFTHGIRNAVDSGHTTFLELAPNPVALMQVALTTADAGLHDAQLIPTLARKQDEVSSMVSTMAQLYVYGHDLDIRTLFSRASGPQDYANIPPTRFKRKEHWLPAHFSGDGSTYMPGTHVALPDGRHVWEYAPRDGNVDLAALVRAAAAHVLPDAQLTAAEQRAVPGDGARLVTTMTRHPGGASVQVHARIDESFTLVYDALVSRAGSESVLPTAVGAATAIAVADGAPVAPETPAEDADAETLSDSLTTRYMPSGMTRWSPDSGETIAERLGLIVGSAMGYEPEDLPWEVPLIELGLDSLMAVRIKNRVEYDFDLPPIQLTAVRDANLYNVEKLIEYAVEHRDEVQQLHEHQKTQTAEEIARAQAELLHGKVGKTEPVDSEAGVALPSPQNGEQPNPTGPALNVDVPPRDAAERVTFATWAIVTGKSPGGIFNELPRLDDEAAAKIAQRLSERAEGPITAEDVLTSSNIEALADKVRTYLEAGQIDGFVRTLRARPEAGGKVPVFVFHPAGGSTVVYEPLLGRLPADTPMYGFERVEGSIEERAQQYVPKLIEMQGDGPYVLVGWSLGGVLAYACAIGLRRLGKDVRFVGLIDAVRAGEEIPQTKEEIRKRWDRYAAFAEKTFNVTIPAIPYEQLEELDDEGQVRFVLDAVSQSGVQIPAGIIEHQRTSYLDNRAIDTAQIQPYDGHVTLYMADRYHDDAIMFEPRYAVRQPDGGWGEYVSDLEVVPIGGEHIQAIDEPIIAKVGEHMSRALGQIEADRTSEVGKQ
UniProt P9WPC5, whole entry: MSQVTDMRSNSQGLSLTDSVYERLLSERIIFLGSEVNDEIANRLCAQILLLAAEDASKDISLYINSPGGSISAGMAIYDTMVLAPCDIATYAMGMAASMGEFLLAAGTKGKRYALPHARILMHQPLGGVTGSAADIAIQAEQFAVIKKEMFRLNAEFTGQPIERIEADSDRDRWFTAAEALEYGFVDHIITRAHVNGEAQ
UniProt P9WPC3, whole entry partner: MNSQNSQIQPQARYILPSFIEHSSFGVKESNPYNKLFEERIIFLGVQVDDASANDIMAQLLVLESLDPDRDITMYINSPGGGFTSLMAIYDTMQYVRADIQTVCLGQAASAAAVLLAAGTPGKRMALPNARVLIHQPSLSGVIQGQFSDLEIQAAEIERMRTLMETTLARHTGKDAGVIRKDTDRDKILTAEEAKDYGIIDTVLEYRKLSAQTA

A: 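Cell assay of Leishmania donovani living inside macrophages; the read-out is not stated. Compounds at 30 µM. Higher reads as stronger inhibition (inferred: compounds with an IC50 in retests scored well above the rest). Of about 69,000 compounds tested this way, about 1,000 (1.5%) reached 50% or more in at least one test.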
B: 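Polyketide synthase Pks13, Mycobacterium tuberculosis (UniProt I6X8D2). Enzyme assay of the thioesterase domain of polyketide synthase 13; the read-out is not stated. Concentration: 30 µM. Higher reads as stronger inhibition (inferred from which compounds were picked for retests). About 67,000 compounds were tested under these conditions; 0.46% (about 300) showed 50% or more at least once.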
C: 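Protease assay of ClpP1P2, read by the AMC dye that it sets free. Target: ClpP1P2, Mycobacterium tuberculosis (UniProt P9WPC5 and UniProt P9WPC3). Compounds at 50 µM. Direction is inferred from only a few compounds that gave an IC50; most scored high, so higher reads as stronger inhibition. Most other retested compounds had strongly negative values. About 69,000 compounds were tested under these conditions; 0.015% (about 10) showed 50% or more at least once.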
D: 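Whole-parasite assay of Trypanosoma brucei over 72 hours; the read-out is not stated. Tested at 30 µM. Direction is inferred from retests: higher values go with stronger inhibition. Values scatter widely below zero; nearly all retest evidence comes from the higher of the two concentrations used. Of about 64,000 compounds tested this way, about 940 (1.5%) reached 50% or more in at least one test.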

Results are given as percent effect.
How 0% and 100% were set is not recorded. Most values in the screen are low, and negative values occur.
This is an unselected part of the compounds tested.
A dash means the value is not listed here; it may have been measured.

Compound | A | B | C | D
Cc1cc2c(c(-c3cncc(C(=O)N4CCCC4)n3)c1)OC(CN)C2 (centres unmarked) | 74.06 | -36.86 | 0.7611 | 9.94
CN1[C@H]2CC[C@@H]1CN(C(=O)c1nnc3n1CCCCC3)CC2 | - | -28.2 | -8.924 | -
Cc1ccc(NC(=O)CN2CCC(OCC3CCCO3)CC2)c(C)c1 (centres unmarked) | -17.99 | -9.581 | -0.1012 | 6.432
O=C(c1ccc(C2CCCN2)s1)N1CCC2(CCCO2)CC1 (centres unmarked) | 4.269 | -30.99 | 1.371 | -3.782
COc1ncccc1C(=O)N1CCC(Nc2ccc(C)nn2)CC1 | 14.28 | -7.719 | -9.984 | 1.215
CN(C)CC1CN(Cc2cccc(C(=O)N(C)C)c2)CCO1 (centres unmarked) | 15.95 | -11.88 | 17.38 | -33.41
Cc1nc(C2(O)CCCNCC2)sc1CCOc1ccc(F)c(F)c1.Cl (centres unmarked) | 85.82 | - | - | 101.7
Cc1n[nH]c(CCC(=O)N2CCOC(Cc3ccc(F)cc3)C2)c1C (centres unmarked) | -14.25 | 7.609 | -4.293 | -20.22
[H][C@@]12CCC(=O)N(CC(C)C)[C@]1([H])CCN(C(=O)Cn1ccccc1=O)C2 | 3.813 | - | - | -23.08
Cc1n[nH]c(C)c1C1CCCN1C(=O)Cc1cccc(F)c1 (centres unmarked) | -5.552 | -5.084 | -5.431 | -8.378
COc1ccc(CCNc2cc(-c3nc(C)no3)ccn2)cc1OC | 3.839 | 21.03 | -4.449 | -46.71
Cl.O=C1NCCCCC1NCc1csc(-c2ccccn2)n1 (centres unmarked) | 22.88 | - | - | -27.95
CN(C)CCNC(=O)c1ccc(OC2CCN(S(C)(=O)=O)CC2)c(Cl)c1 | 21.55 | 0.6693 | -0.2652 | 3.943
COc1cccc(Cl)c1C(C(=O)O)N(C)Cc1nnc(C)o1 (centres unmarked) | -44.3 | -13.3 | 0.541 | -9.392
CC(C)Oc1ccc(CNC(=O)NCc2ccncc2)cc1F | 25.75 | -16.32 | -30.12 | -
[H][C@]12CC[C@]([H])(CN(C3Cc4ccccc4C3)C1)N(Cc1cc(C)no1)C2 | 16.52 | - | - | -16.9
CCN(CC1CCCCO1)C(=O)CCNC(=O)c1ccccc1F (centres unmarked) | 6.424 | -13.52 | 14.34 | -
O=C(O)C(F)(F)F.[H][C@@]12CCN(CCc3ccccc3)C[C@@]1([H])O[C@H](C(=O)N1CCCC1)C2 | 7.434 | - | - | -9.665
CN(C)Cc1nc2c(o1)CN(C(=O)NCc1cccc(F)c1)C2.O=C(O)C(F)(F)F | -3.333 | - | - | -32.05
Cc1n[nH]c2ncc(CNC3CCN(Cc4ccccn4)CC3)cc12 | - | -28.54 | 9.121 | -
COCCCNC(=O)CN(C)C(=O)c1cc2cc(C)ccc2nc1C | 29.11 | -1.117 | -24.6 | -
O=C(O)C(F)(F)F.[H][C@@]12CCN(Cc3ccoc3)[C@]1([H])CC[C@H](C(=O)NCc1cccs1)O2 | -4.846 | - | - | -27.18
O=C(CCc1ccsc1)Nc1cccnc1N1CCCC1 | 25.76 | 9.359 | -14.56 | 13.95
CCOC1CCCN(C(=O)c2sccc2-n2cnnn2)C1 (centres unmarked) | 2.548 | -8.282 | 13.73 | -8.227
CCC(CC)C(=O)N1CCC2(CC1)c1ccccc1[C@@H](OC)[C@@H]2O | 7.225 | -0.6086 | -4.848 | -36.48
CN(Cc1cc(C(C)(C)C)n[nH]1)C(=O)c1ccc2nccn2c1 | 15.59 | -7.497 | -11.22 | -11.34
COCCNC(=O)CN1CCC(N2CCN(C)C2=O)CC1 | 9.01 | 17.65 | -5.325 | -
COc1ccc(F)cc1-n1cnc(CCNC(C)=O)c1 | 3.558 | -5.605 | -3.62 | -15.2
CC(C)Cc1cc(-c2cc(-c3ccc[nH]3)nc(N)c2C#N)n[nH]1 | -50.74 | 35.46 | -3618 | -36.48
CCc1cc(N2CCN(C(C)=O)CC2)n2nc(C)c(C)c2n1 | -7.937 | 14.66 | 6.467 | -47.99
Cc1nnc(CN(Cc2ccc3c(c2)OCO3)C2CCCCC2)o1 | 1.501 | 15.34 | -5.324 | -17.13
CC(C)(C)C(=O)NC[C@H]1Cn2c(-c3ccccc3)cnc2CO1 | 11.63 | -35.63 | -5.542 | 4.411
CCn1nc(C)c2nc(C(C)C)nc(NCc3ccccn3)c21 | 31.71 | -27.25 | -9.576 | -
CC(C)CN(Cc1ccccn1)Cc1ccccc1C(=O)O | -37.24 | 4.468 | 3.792 | -42.34
CNS(=O)(=O)c1cnccc1N1CCN(C(C)C)CC1 | 14.36 | -4.449 | 13.35 | -41.29
O=C(NCCCO)Nc1cccc(I)c1 | 12.09 | -46.01 | 3.058 | -6.143
O=C(N[C@H]1CN(C2CCOCC2)C[C@@H]1C1CC1)c1ccon1 | 29.74 | -33.68 | -2.589 | -27.26
CCn1nc(C)c2c1cnn2CCNS(=O)(=O)c1ccccc1 | 15.55 | -8.07 | -15.68 | 12.09

Once more, the final 3:

Compound	A	B	C	D
O=C(NCCCO)Nc1cccc(I)c1	12.09	-46.01	3.058	-6.143
O=C(N[C@H]1CN(C2CCOCC2)C[C@@H]1C1CC1)c1ccon1	29.74	-33.68	-2.589	-27.26
CCn1nc(C)c2c1cnn2CCNS(=O)(=O)c1ccccc1	15.55	-8.07	-15.68	12.09

Data taken from ChEMBL document CHEMBL3988442, “University of Dundee, Small-Polar-MMV Screening Library” (2021).